Test results reported in paper PMC2204012.
For at least one entry, the source does not settle the construct or the ends of the probe. For some assays here: Where cells or extracts were used, other partners may take part. For some assays here: At least one verdict was read from the data and is not stated in words by the source.

Amino acid sequences for entries named in this document (tags omitted). A change or cut given only in a name is not applied to a line headed by its entry.
UniProt Q60843: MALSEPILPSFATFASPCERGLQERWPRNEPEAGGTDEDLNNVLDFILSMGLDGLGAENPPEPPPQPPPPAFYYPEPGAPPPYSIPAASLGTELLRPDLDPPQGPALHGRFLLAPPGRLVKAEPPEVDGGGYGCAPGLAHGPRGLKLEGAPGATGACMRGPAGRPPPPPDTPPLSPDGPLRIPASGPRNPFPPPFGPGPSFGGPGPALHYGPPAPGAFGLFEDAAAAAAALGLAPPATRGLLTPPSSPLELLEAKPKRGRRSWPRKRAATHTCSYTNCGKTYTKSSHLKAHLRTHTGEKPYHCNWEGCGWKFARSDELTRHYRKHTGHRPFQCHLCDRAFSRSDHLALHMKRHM
UniProt O89090, whole entry: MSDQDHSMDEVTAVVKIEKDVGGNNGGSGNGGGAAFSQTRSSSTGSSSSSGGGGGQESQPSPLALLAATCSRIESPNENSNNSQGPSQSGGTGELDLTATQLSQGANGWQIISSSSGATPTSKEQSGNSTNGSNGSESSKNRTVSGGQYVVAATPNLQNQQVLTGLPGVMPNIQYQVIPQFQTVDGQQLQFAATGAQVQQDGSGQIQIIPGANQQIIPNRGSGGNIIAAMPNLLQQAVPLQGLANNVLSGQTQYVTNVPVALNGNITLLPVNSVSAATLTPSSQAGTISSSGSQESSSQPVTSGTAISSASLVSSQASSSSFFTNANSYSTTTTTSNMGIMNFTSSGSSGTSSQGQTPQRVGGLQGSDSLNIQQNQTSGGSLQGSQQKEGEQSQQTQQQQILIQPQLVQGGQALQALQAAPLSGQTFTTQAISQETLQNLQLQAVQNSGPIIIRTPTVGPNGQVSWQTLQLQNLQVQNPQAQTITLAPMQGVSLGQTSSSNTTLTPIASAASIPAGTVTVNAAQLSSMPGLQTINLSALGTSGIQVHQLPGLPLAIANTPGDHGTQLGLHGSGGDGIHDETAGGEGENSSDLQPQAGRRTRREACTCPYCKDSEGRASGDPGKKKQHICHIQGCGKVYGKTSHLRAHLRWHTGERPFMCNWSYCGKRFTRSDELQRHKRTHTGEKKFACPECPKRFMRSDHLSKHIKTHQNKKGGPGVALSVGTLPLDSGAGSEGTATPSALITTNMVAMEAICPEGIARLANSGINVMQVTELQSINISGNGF
UniProt O70494: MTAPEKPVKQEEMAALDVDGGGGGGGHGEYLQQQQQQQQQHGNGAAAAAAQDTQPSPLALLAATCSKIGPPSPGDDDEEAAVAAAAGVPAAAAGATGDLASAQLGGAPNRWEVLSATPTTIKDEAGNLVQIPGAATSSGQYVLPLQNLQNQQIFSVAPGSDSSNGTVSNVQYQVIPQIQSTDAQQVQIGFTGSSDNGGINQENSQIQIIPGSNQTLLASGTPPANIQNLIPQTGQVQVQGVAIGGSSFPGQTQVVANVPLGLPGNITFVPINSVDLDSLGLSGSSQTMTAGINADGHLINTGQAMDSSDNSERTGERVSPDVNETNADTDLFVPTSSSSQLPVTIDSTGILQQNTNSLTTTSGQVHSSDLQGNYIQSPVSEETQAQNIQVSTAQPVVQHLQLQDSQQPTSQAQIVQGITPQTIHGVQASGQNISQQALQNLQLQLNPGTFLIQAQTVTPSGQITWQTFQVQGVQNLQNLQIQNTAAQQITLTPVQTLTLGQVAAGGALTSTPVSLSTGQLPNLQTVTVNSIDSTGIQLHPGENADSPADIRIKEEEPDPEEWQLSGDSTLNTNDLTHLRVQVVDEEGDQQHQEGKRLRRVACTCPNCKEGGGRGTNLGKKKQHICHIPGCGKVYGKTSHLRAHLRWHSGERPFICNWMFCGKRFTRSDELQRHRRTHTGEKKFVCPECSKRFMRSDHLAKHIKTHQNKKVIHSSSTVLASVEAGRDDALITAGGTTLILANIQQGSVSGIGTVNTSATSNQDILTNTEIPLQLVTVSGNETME

How the values were obtained:
[1] = target: KLF2 (UniProt Q60843); assay: EMSA with antibody inhibition; conditions: ES cell nuclear extract, activity lost in EB extract; EMSA as previously described (ref 61); pH and temperature not stated; protein in an extract
[2] = test system: KLF4 (recombinant); assay: EMSA; conditions: recombinant protein, data not shown, EMSA as previously described (ref 61), pH and temperature not stated
[3] = target: SP1 (UniProt O89090); assay: EMSA supershift; conditions: EMSA as previously described (ref 61), pH and temperature not stated, protein in an extract
[4] = target: SP3 (UniProt O70494); assay: EMSA supershift; conditions: ES cell nuclear extract; EMSA as previously described (ref 61); pH and temperature not stated; protein in an extract

Measured: binding result

GTTGGGCGGGGCGTGGGCGGGGCC (double strand) [p18INK4c promoter extended CACC site]
binds: [1] | [2] | [3]; ES cell nuclear extract | [3]; day 4 EB (serum) nuclear extract | [4]
